Data from the supplement of paper PMC4604168 (melanoma cell lines).
This is one part of the list. Single values are uncertain, as repeats are few or missing.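 Cells were imaged in 1,536-well plates, and nuclei stained with an antibody against cleaved PARP were counted against all DNA-stained nuclei to give the apoptosis fraction. Screening doses were chosen to leave most cells alive, and resting and induced cleaved-PARP levels differ strongly between cell lines.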

Experiments:
Experiment in all cases: cleaved PARP positive nuclei fraction relative to DMSO control; melanoma cells; higher = more apoptosis
Conditions in all cases: library dose: low library concentration; 72 h
501Mel = tested on: 501Mel
A101D = tested on: A101D
A2058 = tested on: A2058
C32 = tested on: C32
CBRC008 = tested on: CBRC008 (line from a melanoma biopsy)
CBRC014 = tested on: CBRC014 (line from a melanoma biopsy)
CBRC016 = tested on: CBRC016 (line from a melanoma biopsy)
CBRC017 = tested on: CBRC017 (line from a melanoma biopsy)
COLO792 = tested on: COLO792
COLO800 = tested on: COLO800
COLO829 = tested on: COLO829
G361 = tested on: G361
IPC-298 = tested on: IPC-298
IST-MEL1 = tested on: IST-MEL1
LB2518-MEL = tested on: LB2518-MEL
LOXIMVI = tested on: LOXIMVI

| SMILES | cleaved PARP positive nuclei fraction (501Mel) | cleaved PARP positive nuclei fraction (A101D) | cleaved PARP positive nuclei fraction (A2058) | cleaved PARP positive nuclei fraction (C32) | cleaved PARP positive nuclei fraction (CBRC008) | cleaved PARP positive nuclei fraction (CBRC014) | cleaved PARP positive nuclei fraction (CBRC016) | cleaved PARP positive nuclei fraction (CBRC017) | cleaved PARP positive nuclei fraction (COLO792) | cleaved PARP positive nuclei fraction (COLO800) | cleaved PARP positive nuclei fraction (COLO829) | cleaved PARP positive nuclei fraction (G361) | cleaved PARP positive nuclei fraction (IPC-298) | cleaved PARP positive nuclei fraction (IST-MEL1) | cleaved PARP positive nuclei fraction (LB2518-MEL) | cleaved PARP positive nuclei fraction (LOXIMVI) |
| --- | --- | --- | --- | --- | --- | --- | --- | --- | --- | --- | --- | --- | --- | --- | --- | --- |
| NC1(c2ccc(-c3nc4ccn5c(=O)[nH]nc5c4cc3-c3ccccc3)cc2)CCC1 + Oc1nc(-c2ccc(C(F)(F)F)cc2)nc2c1CSCC2 [XAV939] (first compound 0.4 µM, partner dose 2 µM) | 56.7% | 23.3% | 72.2% | 24.3% | 101% | 66.5% | 53.9% | 78.2% | 110% | 83.6% | 54.9% | 79.5% | 112% | 65.2% | 162% | 68.6% |
| C[C@]1(O)C[C@@H](c2nc(-c3ccc4ccc(-c5ccccc5)nc4c3)c3c(N)nccn32)C1 + Cc1cc([N+](=O)[O-])ccc1NS(=O)(=O)c1cc(Cl)ccc1Cl [FH535] (first compound 0.4 µM, partner dose 1 µM) | 83% | 43.2% | 234% | 185% | 328% | 193% | 1900% | 430% | 88.2% | 86.6% | 46.5% | 123% | 105% | 134% | 88.5% | 58.1% |
| Cn1sc(=O)n(Cc2ccccc2)c1=O + O=C(Nc1ccccc1)c1cc([N+](=O)[O-])ccc1Cl [GW9662] (first compound 0.4 µM, partner dose 2 µM) | 137% | 32.8% | 53.5% | 89.1% | 81.3% | 85.8% | 127% | 77.3% | 83.6% | 40.9% | 87.9% | 85.6% | 112% | 91.1% | 71.7% | 137% |
| C[C@@H](N)c1ccc(C(=O)Nc2ccnc3[nH]ccc23)cc1 + CCc1ccc(CCOc2ccc(CC3SC(=O)NC3=O)cc2)nc1 [pioglitazone] (first compound 0.4 µM, partner dose 2 µM) | 74% | 25.5% | 156% | 56.1% | 241% | 115% | 104% | 83% | 197% | 69.3% | 80.3% | 175% | 45.8% | 45.7% | 141% | 179% |
| NC(=O)c1ccc(N(C(N)=O)c2c(F)cccc2F)nc1-c1ccc(F)cc1F + CCCCCCCCCCCC1=C(O)C(=O)C=C(O)C1=O [Embelin] (first compound 0.4 µM, partner dose 1.2 µM) | 59% | 18% | 243% | 154% | 143% | 89.2% | 217% | 104% | 144% | 19.3% | 69.2% | 49.1% | 68.4% | 207% | 24.2% | 155% |
| Cn1sc(=O)n(Cc2ccccc2)c1=O + O=C(O)C(=O)Nc1sc2c(c1C(=O)O)CCNC2 [TCS401] (first compound 0.4 µM, partner dose 1.66667 µM) | 78.3% | 8.51% | 73.6% | 71.2% | 156% | 114% | 63.7% | 84.7% | 169% | 46.8% | 82.6% | 101% | 88.8% | 129% | 32.9% | 93.3% |
| C[C@@H](N)c1ccc(C(=O)Nc2ccnc3[nH]ccc23)cc1 + O=C(O)C(=O)Nc1sc2c(c1C(=O)O)CCNC2 [TCS401] (first compound 0.4 µM, partner dose 1.66667 µM) | 33.1% | 31.3% | 77.8% | 160% | 76.2% | 78.3% | 133% | 80.5% | 69.1% | 68.9% | 22.9% | 169% | 58.9% | 146% | 133% | 160% |
| Cn1sc(=O)n(Cc2ccccc2)c1=O + Cc1cc([N+](=O)[O-])ccc1NS(=O)(=O)c1cc(Cl)ccc1Cl [FH535] (first compound 0.4 µM, partner dose 1 µM) | 125% | 29.1% | 91.3% | 90.4% | 608% | 165% | 1360% | 416% | 67.9% | 155% | 231% | 153% | 77.3% | 89.5% | 145% | 78.1% |
| Cn1sc(=O)n(Cc2ccccc2)c1=O + O=C1NC(=O)/C(=C/c2ccc(-c3ccc(F)cc3O)o2)S1 [AS252424] (first compound 0.4 µM, partner dose 1 µM) | 110% | 14.9% | 44.2% | 68.1% | 153% | 165% | 49.1% | 108% | 146% | 42.8% | 88.8% | 193% | 358% | 58.8% | 64.6% | 50.3% |

Full records from above. Values in the order: cleaved PARP positive nuclei fraction (501Mel) | cleaved PARP positive nuclei fraction (A101D) | cleaved PARP positive nuclei fraction (A2058) | cleaved PARP positive nuclei fraction (C32) | cleaved PARP positive nuclei fraction (CBRC008) | cleaved PARP positive nuclei fraction (CBRC014) | cleaved PARP positive nuclei fraction (CBRC016) | cleaved PARP positive nuclei fraction (CBRC017) | cleaved PARP positive nuclei fraction (COLO792) | cleaved PARP positive nuclei fraction (COLO800) | cleaved PARP positive nuclei fraction (COLO829) | cleaved PARP positive nuclei fraction (G361) | cleaved PARP positive nuclei fraction (IPC-298) | cleaved PARP positive nuclei fraction (IST-MEL1) | cleaved PARP positive nuclei fraction (LB2518-MEL) | cleaved PARP positive nuclei fraction (LOXIMVI)
Cn1sc(=O)n(Cc2ccccc2)c1=O + O=C(Nc1ccccc1)c1cc([N+](=O)[O-])ccc1Cl [GW9662] (first compound 0.4 µM, partner dose 2 µM) as listed: 137% | 32.8% | 53.5% | 89.1% | 81.3% | 85.8% | 127% | 77.3% | 83.6% | 40.9% | 87.9% | 85.6% | 112% | 91.1% | 71.7% | 137%
NC1(c2ccc(-c3nc4ccn5c(=O)[nH]nc5c4cc3-c3ccccc3)cc2)CCC1 + Oc1nc(-c2ccc(C(F)(F)F)cc2)nc2c1CSCC2 [XAV939] (first compound 0.4 µM, partner dose 2 µM) as listed: 56.7% | 23.3% | 72.2% | 24.3% | 101% | 66.5% | 53.9% | 78.2% | 110% | 83.6% | 54.9% | 79.5% | 112% | 65.2% | 162% | 68.6%
